Reference: patent publication US7361279B2, “Removing metals from solution using metal binding compounds and sorbents therefor” (priority 2002, dated 2008)

Test: Flow-through / column metal removal with benzotriazole and activated carbon
Conditions: molar excess of the metal by 30:1, hydraulic residence time at least two hours

SMILES: Cc1ccc2[nH]nnc2c1 [5-MeBT, 5-methylbenzotriazole]
- metal concentration reduction on granular activated carbon: at least a thousand fold concentration reduction
